Test results published in the supplement of paper PMC6078165.
± gives the standard deviation of the averaged measurements. Values are relative to the signal before dosing, not to a vehicle control; the signal also falls without drug.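 Labels refer to human fibroblasts, largely primary: uterine (C12385, HUF), lung (H6013), bone (Hs27A), adrenal (HADF), skin (WS1), plus mammary HMF and breast cancer-associated Hs343T. Cancer lines are basal-like or mesenchymal-like triple-negative breast cancer. The paper counts as hits responses shifting over 3x the replicate standard deviation. The tissue of the other fibroblasts is not given here.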

System: BT20
Experiment: relative JC-1 red fluorescence (viability) vs pre-drug, coculture with fibroblast (fraction); higher = more viable cancer cells
Procedure: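 JC-1 labelled TNBC cells cocultured 1:1 (1,500 cells each) with CellTrace Violet stained primary or stromal fibroblasts in 384-well plates in FluoroBrite medium, treated with one of 42 anticancer drugs at 0.1, 1, 10 or 100 uM. JC-1 red fluorescence (mitochondrial integrity in cancer cells only) was read by plate reader every 8 h for 72 h. Values are normalised to each well's pre-drug value. The stock of one drug was tenfold lower, so its dose labels may be too high.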

O=C(O)C1(C(=O)O)CCC1.[NH2-].[NH2-].[Pt+2] [Carboplatin]
relative JC-1 red fluorescence
Conditions | 8 h | 16 h | 24 h | 32 h | 40 h | 48 h | 56 h | 64 h | 72 h
0.1 µM, coculture fibroblast: C12385 | 0.8981 ± 0.0062 | 0.809 ± 0.015 | 0.757 ± 0.035 | 0.692 ± 0.042 | 0.64 ± 0.035 | 0.609 ± 0.05 | 0.583 ± 0.056 | 0.565 ± 0.073 | 0.549 ± 0.088
0.1 µM, coculture fibroblast: H6013 | 0.961 ± 0.024 | 0.889 ± 0.049 | 0.866 ± 0.074 | 0.83 ± 0.08 | 0.788 ± 0.088 | 0.772 ± 0.089 | 0.762 ± 0.094 | 0.738 ± 0.099 | 0.718 ± 0.097
0.1 µM, coculture fibroblast: H6019 | 0.86 ± 0.029 | 0.792 ± 0.044 | 0.785 ± 0.057 | 0.729 ± 0.072 | 0.689 ± 0.083 | 0.671 ± 0.094 | 0.649 ± 0.11 | 0.63 ± 0.12 | 0.615 ± 0.13
0.1 µM, coculture fibroblast: H6076 | 0.892 ± 0.15 | 0.88 ± 0.015 | 0.8057 ± 0.0058 | 0.786 ± 0.0086 | 0.7561 ± 0.0051 | 0.7471 ± 0.0041 | 0.7399 ± 0.0043 | 0.745 ± 0.013 | 0.732 ± 0.015
0.1 µM, coculture fibroblast: H6231 | 0.886 ± 0.16 | 0.893 ± 0.011 | 0.858 ± 0.12 | 0.811 ± 0.15 | 0.777 ± 0.15 | 0.724 ± 0.14 | 0.686 ± 0.13 | 0.671 ± 0.12 | 0.643 ± 0.11
0.1 µM, coculture fibroblast: HADF | 0.816 ± 0.11 | 0.822 ± 0.086 | 0.848 ± 0.08 | 0.816 ± 0.089 | 0.6979 ± 0.00085 | 0.716 ± 0.097 | 0.655 ± 0.052 | 0.691 ± 0.14 | 0.7 ± 0.21
0.1 µM, coculture fibroblast: HCFa | 0.9504 ± 0.0064 | 0.8713 ± 0.0004 | 0.87 ± 0.03 | 0.838 ± 0.026 | 0.805 ± 0.035 | 0.784 ± 0.031 | 0.767 ± 0.036 | 0.755 ± 0.035 | 0.719 ± 0.046
0.1 µM, coculture fibroblast: HCPF | 0.881 ± 0.015 | 0.916 ± 0.011 | 0.816 ± 0.027 | 0.785 ± 0.021 | 0.734 ± 0.033 | 0.695 ± 0.028 | 0.653 ± 0.024 | 0.633 ± 0.023 | 0.602 ± 0.016
0.1 µM, coculture fibroblast: HHSteC | 0.9392 ± 0.0046 | 0.839 ± 0.023 | 0.816 ± 0.028 | 0.732 ± 0.035 | 0.662 ± 0.034 | 0.624 ± 0.04 | 0.587 ± 0.027 | 0.561 ± 0.027 | 0.537 ± 0.035
0.1 µM, coculture fibroblast: HMF | 0.747 ± 0.044 | 0.914 ± 0.028 | 0.7758 ± 0.0063 | 0.712 ± 0.00074 | 0.6622 ± 0.001 | 0.6248 ± 0.001 | 0.5913 ± 0.0018 | 0.561 ± 0.015 | 0.534 ± 0.0063
0.1 µM, coculture fibroblast: HPFa | 0.916 ± 0.033 | 0.818 ± 0.051 | 0.793 ± 0.041 | 0.701 ± 0.034 | 0.6663 ± 0.0018 | 0.612 ± 0.011 | 0.577 ± 0.018 | 0.543 ± 0.03 | 0.486 ± 0.036
0.1 µM, coculture fibroblast: HUF | 0.9019 ± 0.0042 | 0.8 ± 0.029 | 0.724 ± 0.046 | 0.637 ± 0.05 | 0.575 ± 0.037 | 0.524 ± 0.03 | 0.498 ± 0.034 | 0.481 ± 0.036 | 0.46 ± 0.033
0.1 µM, coculture fibroblast: Hs5 | 0.832 ± 0.067 | 0.927 ± 0.033 | 0.849 ± 0.0019 | 0.7962 ± 0.006 | 0.744 ± 0.023 | 0.708 ± 0.026 | 0.67 ± 0.052 | 0.635 ± 0.074 | 0.594 ± 0.08
0.1 µM, coculture fibroblast: Hs27A | 0.747 ± 0.05 | 0.919 ± 0.067 | 0.929 ± 0.081 | 0.934 ± 0.088 | 0.869 ± 0.069 | 0.841 ± 0.052 | 0.813 ± 0.061 | 0.772 ± 0.057 | 0.711 ± 0.065
0.1 µM, coculture fibroblast: Hs343T | 0.768 ± 0.065 | 0.888 ± 0.025 | 0.761 ± 0.0091 | 0.696 ± 0.0076 | 0.6494 ± 0.0013 | 0.6049 ± 0.0016 | 0.56 ± 0.013 | 0.541 ± 0.02 | 0.508 ± 0.033
0.1 µM, coculture fibroblast: WS1 | 0.869 ± 0.0043 | 0.8143 ± 0.0048 | 0.73 ± 0.024 | 0.67 ± 0.018 | 0.617 ± 0.031 | 0.591 ± 0.034 | 0.563 ± 0.039 | 0.534 ± 0.04 | 0.522 ± 0.041
1 µM, coculture fibroblast: C12385 | 0.865 ± 0.01 | 0.785 ± 0.06 | 0.731 ± 0.062 | 0.658 ± 0.065 | 0.589 ± 0.074 | 0.556 ± 0.074 | 0.531 ± 0.081 | 0.511 ± 0.083 | 0.494 ± 0.086
1 µM, coculture fibroblast: H6013 | 0.934 ± 0.015 | 0.8795 ± 0.0087 | 0.8545 ± 0.0026 | 0.8117 ± 0.0032 | 0.7756 ± 0.0068 | 0.7668 ± 0.0066 | 0.767 ± 0.0091 | 0.751 ± 0.012 | 0.734 ± 0.014
1 µM, coculture fibroblast: H6019 | 0.852 ± 0.01 | 0.81 ± 0.025 | 0.787 ± 0.038 | 0.715 ± 0.028 | 0.668 ± 0.031 | 0.647 ± 0.027 | 0.609 ± 0.021 | 0.59 ± 0.027 | 0.567 ± 0.029
1 µM, coculture fibroblast: H6076 | 0.959 ± 0.049 | 0.91 ± 0.036 | 0.826 ± 0.01 | 0.786 ± 0.008 | 0.757 ± 0.013 | 0.722 ± 0.024 | 0.718 ± 0.037 | 0.72 ± 0.047 | 0.709 ± 0.042
1 µM, coculture fibroblast: H6231 | 0.863 ± 0.18 | 0.865 ± 0.064 | 0.819 ± 0.085 | 0.757 ± 0.081 | 0.724 ± 0.092 | 0.671 ± 0.093 | 0.638 ± 0.081 | 0.607 ± 0.079 | 0.581 ± 0.065
1 µM, coculture fibroblast: HADF | 0.962 ± 0.032 | 0.885 ± 0.017 | 0.8165 ± 0.0048 | 0.767 ± 0.0083 | 0.7281 ± 0.0061 | 0.69 ± 0.0096 | 0.66 ± 0.0096 | 0.636 ± 0.018 | 0.603 ± 0.0071
1 µM, coculture fibroblast: HCFa | 0.9211 ± 0.0052 | 0.882 ± 0.044 | 0.828 ± 0.079 | 0.764 ± 0.07 | 0.716 ± 0.078 | 0.69 ± 0.081 | 0.673 ± 0.098 | 0.648 ± 0.12 | 0.61 ± 0.12
1 µM, coculture fibroblast: HCPF | 0.946 ± 0.072 | 0.891 ± 0.0032 | 0.811 ± 0.014 | 0.742 ± 0.016 | 0.691 ± 0.013 | 0.649 ± 0.017 | 0.612 ± 0.0094 | 0.595 ± 0.017 | 0.549 ± 0.0062
1 µM, coculture fibroblast: HHSteC | 0.921 ± 0.023 | 0.94497 ± 0.00041 | 0.9759 ± 0.0046 | 0.912 ± 0.032 | 0.895 ± 0.04 | 0.869 ± 0.048 | 0.864 ± 0.063 | 0.851 ± 0.073 | 0.829 ± 0.1
1 µM, coculture fibroblast: HMF | 0.945 ± 0.042 | 0.861 ± 0.04 | 0.749 ± 0.025 | 0.68412 ± 0.00016 | 0.6338 ± 0.00074 | 0.5899 ± 0.0016 | 0.555 ± 0.011 | 0.542 ± 0.0085 | 0.516 ± 0.0099
1 µM, coculture fibroblast: HPFa | 0.9074 ± 0.0089 | 0.845 ± 0.035 | 0.834 ± 0.064 | 0.751 ± 0.077 | 0.726 ± 0.089 | 0.685 ± 0.1 | 0.661 ± 0.1 | 0.622 ± 0.11 | 0.565 ± 0.11
1 µM, coculture fibroblast: HUF | 0.923 ± 0.044 | 0.846 ± 0.044 | 0.822 ± 0.09 | 0.739 ± 0.093 | 0.687 ± 0.1 | 0.645 ± 0.1 | 0.622 ± 0.11 | 0.604 ± 0.11 | 0.588 ± 0.12
1 µM, coculture fibroblast: Hs5 | 0.988 ± 0.017 | 0.8982 ± 0.0058 | 0.8231 ± 0.0052 | 0.77 ± 0.0045 | 0.738 ± 0.033 | 0.708 ± 0.042 | 0.679 ± 0.043 | 0.648 ± 0.042 | 0.617 ± 0.049
1 µM, coculture fibroblast: Hs27A | 0.876 ± 0.074 | 0.971 ± 0.023 | 0.901 ± 0.019 | 0.878 ± 0.034 | 0.841 ± 0.036 | 0.818 ± 0.033 | 0.798 ± 0.042 | 0.771 ± 0.041 | 0.715 ± 0.041
1 µM, coculture fibroblast: Hs343T | 0.951 ± 0.051 | 0.883 ± 0.023 | 0.757 ± 0.027 | 0.68 ± 0.03 | 0.611 ± 0.031 | 0.555 ± 0.048 | 0.509 ± 0.045 | 0.487 ± 0.042 | 0.46 ± 0.034
1 µM, coculture fibroblast: WS1 | 0.863 ± 0.027 | 0.7729 ± 0.0027 | 0.7336 ± 0.0042 | 0.6581 ± 0.0059 | 0.593 ± 0.012 | 0.564 ± 0.0082 | 0.539 ± 0.0092 | 0.5091 ± 0.0032 | 0.4917 ± 0.0044
